The data set in a line: Hydrolysis of insoluble substrates, statements over all substrates. Format: biochemical.

B1: Pho EG: cellulase of Pyrococcus horikoshii strain OT3 (Accession No. NP_143072); SEQ ID NO: 21 (protein, listed as Pyrococcus horikoshii)
chain: MEGNTILKIVLICTILAGLFGQVVPVYAENTTYQTPTGIYYEVRGDTIYMINVTSGEETPIHLFGVNWFGFETPNHVVHGLWKRNWEDMLLQIKSLGFNAIRLPFCTESVKPGTQPIGIDYSKNPDLRGLDSLQIMEKIIKKAGDLGIFVLLDYHRIGCTHIEPLWYTEDFSEEDFINTWIEVAKRFGKYWNVIGADLKNEPHSVTSPPAAYTDGTGATWGMGNPATDWNLAAERIGKAILKVAPHWLIFVEGTQFTNPKTDSSYKWGYNAWWGGNLMAVKDYPVNLPRNKLVYSPHVYGPDVYNQPYFGPAKGFPDNLPDIWYHHFGYVKLELGYSVVIGEFGGKYGHGGDPRDVIWQNKLVDWMIENKFCDFFYWSWNPDSGDTGGILQDDWTTIWEDKYNNLKRLMDSCSKSSSSTQSVIRSTTPTKSNTSKKICGPAILIILAVFSLLLRRAPR
As to B1, the major hydrolysis product entry is on record as “Cellobiose”.

B2: Tma Cel5A: wild-type cellulase of Thermatoga maritima strain MSB8 (Accession No. NP_229549); SEQ ID NO: 20 (protein, listed as Thermotoga maritima)
chain: MGVDPFERNKILGRGINIGNALEAPNEGDWGVVIKDEFFDIIKEAGFSHVRIPIRWSTHAYAFPPYKIMDRFFKRVDEVINGALKRGLAVVINIHHYEELMNDPEEHKERFLALWKQIADRYKDYPETLFFEILNEPHGNLTPEKWNELLEEALKVIRSIDKKHTIIIGTAEWGGISALEKLSVPKWEKNSIVTIHYYNPFEFTHQGAEWVEGSEKWLGRKWGSPDDQKHLIEEFNFIEEWSKKNKRPIYIGEFGAYRKADLESRIKWTSFVVREMEKRRWSWAYWEFCSGFGVYDTLRKTWNKDLLEALIGGDSIE
On to B2, for which the major hydrolysis product entry is “a mixture of sugars”.

(Values after patent US9322042B2, “Thermostable cellulases, and mutants thereof, capable of hydrolyzing cellulose in ionic liquid” (The Regents of the University of California, priority 2009, dated 2016).)
